{"source": "patent US20200338039A1", "about": "“METHODS AND MATERIALS FOR ASSESSING BIOLOGICAL AGE AND SLOWING THE PROGRESS OF EXCESSIVE BIOLOGICAL AGING” (The Scripps Research Institute, priority 2017, published 2020)", "key": {"[1]": {"test_system": "26 month-old WT mice (C57BL/6J)", "test": "Serum MCP-1 by ELISA in old WT mice on rapamycin diet", "type": "in vivo, mouse", "conditions": "rapamycin diet 14 ppm females / 42 ppm males for 8 weeks, FIG. 1G"}, "C57BL/6J mice [2]": {"test_system": "C57BL/6J mice", "test": "Composite lesion scores (geropathology grading, histology) in old mice on rapamycin diet", "type": "in vivo", "conditions": "26 month-old C57Bl/6 mouse; oral rapamycin for 8 weeks; representative image FIG. 7", "from_the_text": "Two year-old C57BL/6J mice were fed a diet containing rapamycin (14 ppm for females or 42 ppm for males) or a control diet for two months. […] In addition, rapamycin attenuated composite lesion scores in kidneys (FIG. 7), liver, and lungs of these mice by an average of 40, 41, and 29 percent, respectively.\nTwo year old C57BL/6J mice were obtained from the NIA Rodent Colony and treated with encapsulated rapamycin (Rapamycin Holdings, San Antonio Tex.) at 14 ppm for females and 42 ppm for males, or control (encapsulated only) diet for 8 weeks. Mice were sacrificed at 26 months and serum collected preceding necropsy. Ercc1^−/Δ mice were treated with Dasatinib and Quercetin as described elsewhere (see, e.g., Zhu et al., 2015 Aging cell. 14(4):644-658). Briefly, Ercc1^−/Δ mice were treated weekly with a combination of Dasatinib (5 mg/kg) and Quercetin (50 mg/kg) starting at 4-6 weeks of age. […]\nMouse tissues were collected at necropsy and placed in 10% buffered formalin for 48 hours, transferred to 70% alcohol, and subsequently processed into paraffin blocks for sectioning and hematoxylin and eosin staining. Histology slides were validated for age-related lesions by a veterinary pathologist and scored for lesion severity to create a composite lesion score for age-related renal pathology in each animal (see, e.g., Ladiges 2016 Pathobiol Aging Age Relat Dis. 6:31478)."}, "C57BL/6J mice [3]": {"test_system": "C57BL/6J mice", "test": "Longitudinal echocardiography in old mice on rapamycin diet", "type": "in vivo, mouse", "conditions": "two year-old C57BL/6J mice, rapamycin diet for two months"}, "WT mice": {"test_system": "WT mice", "conditions": "cited from earlier work"}}, "note": "Entries after “also recorded” stand apart in the source; their conditions may differ. At least one compound was matched to its structure with a doubt left.", "data": [{"smiles": "CO[C@H]1C[C@@H]2CC[C@@H](C)[C@@](O)(O2)C(=O)C(=O)N2CCCC[C@H]2C(=O)O[C@H]([C@H](C)C[C@@H]2CC[C@@H](O)[C@H](OC)C2)CC(=O)[C@H](C)/C=C(\\C)[C@@H](O)[C@@H](OC)C(=O)[C@H](C)C[C@H](C)/C=C/C=C/C=C/1C", "note": "[rapamycin]", "values": [{"measurement": "serum levels of MCP-1 vs control diet", "setting": "[1]", "value": "significantly decreased; also recorded: lowers serum MCP-1 levels to a range consistent with fl mice"}, {"measurement": "kidney section age-related lesions vs placebo", "setting": "C57BL/6J mice [2]", "value": "less severe age-related lesions, including mild glomerulonephropathy and mild lymphoid aggregates"}, {"measurement": "aging-related decline in cardiac performance", "setting": "C57BL/6J mice [3]", "value": "significantly reversed"}, {"measurement": "cardiac hypertrophy", "setting": "C57BL/6J mice [3]", "value": "substantially attenuated"}, {"measurement": "lifespan of WT mice", "setting": "WT mice; Harrison et al. 2009", "value": "significant extension"}, {"measurement": "characteristics of cardiac aging", "setting": "WT mice; late-life intervention, Dai et al. 2014", "value": "sufficient to reduce multiple characteristics of cardiac aging"}]}]}
